Experimental data: PubChem BioAssay AID1224830 (NIAID, 2016)
Assay: 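Host factors that control LPS-induced TNF expression in human macrophages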 (primary screen). Cells: human THP-1 monocytic leukaemia cells, TNF dual-luciferase reporter clone, PMA-differentiated to macrophage-like cells. Reagent: siRNA pool against human genes, 50 nM. Duration: LPS for 4 h, given about 3 days after siRNA transfection. Conditions: bacterial LPS (TLR4 ligand), 10 ng/ml. Measured: 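TNF firefly reporter luminescence divided by renilla, normalised to the plate median, then turned into a robust z-score for each replicate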. Direction: TNF reporter robust z-score: higher = stronger TNF reporter response to LPS. Active means: 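a well is active when its z-score exceeds 2.8 or falls below -1.5; control wells carry no call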.
Here is an unselected part of about 18,000 reagents tested. In the full data, about 2,900 (16%) are marked active. 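Calls are made per well; low scores hint the gene aids the LPS response, high scores that it dampens it.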 Repeated entries: four replicate wells of each siRNA pool.

| gene | TNF reporter robust z-score | outcome |
| --- | --- | --- |
| CLEC4M | 1.63 | inactive |
| CLEC4M | 2.28 | inactive |
| CLEC4M | 1.74 | inactive |
| CLEC4M | 1.21 | inactive |
| KLK11 | -0.55 | inactive |
| KLK11 | 1.08 | inactive |
| KLK11 | -0.52 | inactive |
| KLK11 | -1.15 | inactive |
| GLCCI1 | 0.3 | inactive |
| GLCCI1 | -0.22 | inactive |
| GLCCI1 | 0.29 | inactive |
| GLCCI1 | -0.03 | inactive |
| PNPLA4 | 0.07 | inactive |
| PNPLA4 | 2.84 | active |
| PNPLA4 | 3.66 | active |
| PNPLA4 | 3.65 | active |
| DEFB121 | 0.39 | inactive |
| DEFB121 | 2.67 | inactive |
| DEFB121 | 0.3 | inactive |
| DEFB121 | 0.63 | inactive |
| PNLIPRP3 | -0.5 | inactive |
| PNLIPRP3 | -0.18 | inactive |
| PNLIPRP3 | -0.33 | inactive |
| PNLIPRP3 | -1.87 | active |
| ENPP5 | -0.27 | inactive |
| ENPP5 | 1.68 | inactive |
| ENPP5 | -0.64 | inactive |
| PRR25 | 0.34 | inactive |
| PRR25 | 0.48 | inactive |
| PRR25 | 0.87 | inactive |
| PRR25 | 2.07 | inactive |
| RAP1GAP2 | -0.43 | inactive |
| RAP1GAP2 | -0.95 | inactive |
| RAP1GAP2 | -0.57 | inactive |
| RAP1GAP2 | -0.21 | inactive |
| CLSTN2 | 0.16 | inactive |
| CLSTN2 | -0.1 | inactive |
| CLSTN2 | -1.06 | inactive |
| CLSTN2 | -0.05 | inactive |
| ZBTB14 | 0.25 | inactive |
| ZBTB14 | 0.64 | inactive |
| ZBTB14 | 0.21 | inactive |
| ZBTB14 | 0.55 | inactive |
| OLFML2B | 1.3 | inactive |
| OLFML2B | 0.39 | inactive |
| OLFML2B | 0.72 | inactive |
| OLFML2B | -1.01 | inactive |
| H2BC11 | -1.71 | active |
| H2BC11 | -0.44 | inactive |
| H2BC11 | -1.22 | inactive |
| H2BC11 | -0.82 | inactive |
| MTA3 | -0.92 | inactive |
| MTA3 | -0.54 | inactive |
| MTA3 | -0.36 | inactive |
| MTA3 | -0.4 | inactive |
| DRAXIN | -1.7 | active |
| DRAXIN | -0.99 | inactive |
| DRAXIN | -1.66 | active |
| DRAXIN | -1.49 | inactive |
| GATA6 | 0.2 | inactive |
| GATA6 | -0.14 | inactive |
| GATA6 | 0.3 | inactive |
| GATA6 | 0.73 | inactive |
| TRNP1 | -0.94 | inactive |
| TRNP1 | -0.54 | inactive |
| TRNP1 | -1.01 | inactive |
| TRNP1 | -0.95 | inactive |
| IL9 | -0.44 | inactive |
| IL9 | -0.59 | inactive |
| IL9 | -0.81 | inactive |
| IL9 | -0.39 | inactive |
| CTTNBP2 | -0.31 | inactive |
| CTTNBP2 | -0.9 | inactive |
| CTTNBP2 | 0.58 | inactive |
| CTTNBP2 | -0.78 | inactive |
